Results as given in PubChem BioAssay AID540276 (National Center for Advancing Translational Sciences (NCATS), 2011).
Hit rate of the full screen: of about 300,000 compounds, about 5,400 (1.8%) were called active. This list was built around the results that the source calls inconclusive (neither active nor inactive); the mix of calls is not that of the screen. Calls follow the shape of the full dose curve; tested in HEK293 cells. Potencies beside an inconclusive call are fits to weak or partial responses and may not hold up.
% is scaled to controls: 0 for no effect and ±100 for the full control effect; potency is read from the fitted curve at half-maximal effect.

Experiment: qHTS for inhibitors of binding or entry into cells for Marburg Virus
Conditions: Marburg virus pseudotyped entry inhibition, cell reporter; activity change, negative = inhibition: at 37.8 µM (top of the series) unless noted
For CCOc1ccc2nc(NC(=O)C(CC)Sc3nc(C)cc(=O)[nH]3)sc2c1 (stereo not given), the Potency was inconclusive: 11.2 µM [inhibitor, single point].
With COc1cccc(C(=O)N/N=C/c2ccc(Oc3ccc([N+](=O)[O-])cn3)c(OC)c2)c1 the Potency was inconclusive: 18.3 µM [inhibitor, partial curve, poor fit].
In the case of COc1ccc(C(=O)OCCOc2ccccc2C(C)=O)c(O)c1, the “activity change, negative = inhibition” value is reported as inactive: -0.859% [at 14.2 µM].
With CC(C)(C)c1ccc(/C=C/C(=O)Nc2cccnc2)cc1 the Potency was inconclusive: 35.5 µM [inhibitor, single point].
For CC(C)(C)NC(=O)COc1ccc(-c2ccccc2)cc1, the “activity change, negative = inhibition” value was inactive: -0.238%.
In the case of CCOCCCn1c(SCC(=O)NCc2ccco2)nc2c(sc3ccccc32)c1=O, the Potency is reported as inconclusive: 7.3 µM [inhibitor, partial curve, poor fit].
With Cc1ccc2[nH]c(C)c(/C=N/Nc3nc4ccccc4s3)c2c1 the Potency was inconclusive: 29.1 µM [inhibitor, single point].
For CC(C)C(c1nnnn1Cc1ccc(F)cc1)N1CCN(C2CCCC2)CC1 (stereo not given), the “activity change, negative = inhibition” value was inactive: 3.36% [at 46.1 µM].
In the case of COC(=O)[C@@H]1C(c2ccccc2)(c2ccccc2)[C@@]1(C)C(=O)OC, the Potency is reported as inconclusive: 35.5 µM [activator, single point].
With CCN1CCN(S(=O)(=O)c2ccc(Cl)c(C(=O)Nc3ccccc3N3CCCCC3)c2)CC1 the Potency was active: 11.2 µM.
With CCOC(=O)C1=C(CC)Nc2ccccc2N=C1NC(=O)c1cc(S(=O)(=O)N(C)C)ccc1Cl the Potency was inconclusive: 10 µM [inhibitor, partial curve].
In the case of COc1cccc(-c2cccc(NC(=O)C3CCN(CC4CCOC4)CC3)c2)c1 (stereo not given), the Potency is reported as inconclusive: 3.16 µM [activator, single point].
In the case of C[N+](C)(CCOc1ccccc1)Cc1ccccc1 (tested in a mixture with another compound), the “activity change, negative = inhibition” value is reported as inactive: -0.673%.
In the case of CC(O)CNc1nc2c(c(=O)n(Cc3ccc(Cl)cc3)c(=O)n2C)n1C (stereo not given), the Potency is reported as inconclusive: 0.891 µM [inhibitor, full curve, poor fit].
With COCC(=O)N1CCN(c2ccc([N+](=O)[O-])cc2)CC1 the Potency was inconclusive: 0.158 µM [activator, full curve, poor fit].
With COc1ccc(CCNC(=O)CCc2c(C)c3cc4c(C)coc4c(C)c3oc2=O)cc1OC the “activity change, negative = inhibition” value was inactive: 12% [at 46.1 µM].
For CCCN1C(=O)COc2ccc(-c3n[nH]c(=O)c4ccccc34)cc21, the Potency was active: 10 µM.
With C=CCn1c(SCC(=O)N2CCCC2)nc2scc(-c3cccs3)c2c1=O the “activity change, negative = inhibition” value was inactive: 7.69%.
With CC(/C=N/NC(=O)Cc1cccs1)=C\c1ccccc1 the Potency was inconclusive: 0.199 µM [activator, full curve, poor fit].
In the case of COc1ccc(-c2nnc(C3CCN(S(=O)(=O)c4ccc(C)c(C)c4)CC3)o2)cc1, the “activity change, negative = inhibition” value is reported as inactive: 8.55% [at 46.1 µM].
For CC(C)COc1ccc(CSCCNC(=S)Nc2ccccc2)cc1, the Potency was inconclusive: 10 µM [inhibitor, partial curve, poor fit].
For COc1ccc(S(=O)(=O)Nc2cc(C(=O)NCCCN3CCOCC3)ccc2N2CCOCC2)cc1, the “activity change, negative = inhibition” value was inactive: -12.3%.
With Cc1ccccc1Cc1c(C)nc2nc(SCC(=O)NCc3ccco3)nn2c1C the Potency was inconclusive: 20 µM [inhibitor, single point].
For O=C(c1ccccc1)n1nnc2ccccc21, the “activity change, negative = inhibition” value was inactive: 3.45%.
For CCOC(=O)C1=C(C)N=c2s/c(=C/c3cccc([N+](=O)[O-])c3O)c(=O)n2C1c1cc(OC)c(OC)c(OC)c1 (stereo not given), the “activity change, negative = inhibition” value was inactive: -34.4% [at 46.1 µM].
For CCc1ccc(NC(=O)Nc2ccc3c(c2)CCC3)cc1, the Potency was inconclusive: 6.31 µM [activator, full curve, poor fit].
With O=C(NCCCN1CCOCC1)c1cn(-c2ccccc2)nc1-c1ccc(F)cc1 the Potency was inconclusive: 35.5 µM [inhibitor, single point].
For Cc1cc(Cl)ccc1OCC(=O)N(Cc1ccco1)Cc1ccco1, the “activity change, negative = inhibition” value was inactive: 5.59% [at 46.1 µM].
For c1ccc(OCc2nn3c(-c4ccco4)nnc3s2)cc1, the “activity change, negative = inhibition” value was inactive: 6.26%.
In the case of Cc1cc(=O)c2c(C)nn(-c3ccccc3)c2[nH]1, the Potency is reported as inconclusive: 0.891 µM [activator, full curve, poor fit].
In the case of CCN(C(=O)Cn1cnc2sc(C)c(S(=O)(=O)N3CCN(c4ncccn4)CC3)c2c1=O)c1ccccc1F, the Potency is reported as inconclusive: 2.82 µM [inhibitor, partial curve, poor fit].
With CC(C)CN1C(=S)SC(C)(C)C1n1oc(=O)n(-c2ccc(Cl)cc2)c1=O (stereo not given) the Potency was inconclusive: 18.3 µM [inhibitor, single point].
In the case of CCCC1OC(c2ccco2)OCC1CC (stereo not given), the Potency is reported as inconclusive: 11.2 µM [inhibitor, partial curve].
In the case of OC(COc1ccccc1Cl)CN1CCN(CC(O)COc2ccccc2Cl)CC1 (stereo not given), the Potency is reported as inconclusive: 2.51 µM [inhibitor, full curve, poor fit].
For CCOC(=O)c1ccc(NC(=O)NC(C)C2CCCO2)cc1 (stereo not given), the Potency was inconclusive: 29.1 µM [activator, single point].
With COc1cc(/C=C/C(=O)OCC(=O)NC(C)c2ccccc2)cc(OC)c1OC (stereo not given) the Potency was inconclusive: 0.251 µM [inhibitor, full curve, poor fit].
In the case of COc1ccc(OCC(=O)N/N=C/c2ccc(N(C)C)cc2)cc1, the Potency is reported as inconclusive: 0.562 µM [activator, full curve, poor fit].
For COc1ccc(Cc2nc3ccccc3n2Cc2ccccc2F)cc1, the Potency was inconclusive: 2.82 µM [inhibitor, full curve].
For Cc1cc(C)nc(SCC(=O)Oc2ccc3oc(=O)cc(C)c3c2)n1, the Potency was inconclusive: 35.5 µM [activator, single point].
For CC(=O)Nc1ccc(S(=O)(=O)NCC2CCC(C(=O)NCCCN(C)Cc3ccccc3)CC2)cc1 (stereo not given), the “activity change, negative = inhibition” value was inactive: 27.8% [at 46.1 µM].
With O=C1NC(c2ccccc2)C(C(=O)c2cccs2)C(O)(C(F)(F)F)N1 (stereo not given) the “activity change, negative = inhibition” value was inactive: -3.39%.
With NC(=S)N/N=C\c1ccccc1OCc1ccccc1 the Potency was inconclusive: 1.58 µM [inhibitor, partial curve, poor fit].
With COCCN(C(=O)COC(=O)/C=C/c1nc2ccccc2s1)c1c(N)n(Cc2ccccc2)c(=O)[nH]c1=O the Potency was inconclusive: 22.4 µM [inhibitor, single point].
With NC(=S)N/N=C/c1ccc(-n2nncc2-c2ccc(Cl)cc2)cc1 the Potency was inconclusive: 10 µM [inhibitor, partial curve, poor fit].
With CC(C)c1ccc(/C=C/C(=O)O)cc1 the “activity change, negative = inhibition” value was inactive: 7.06% [at 46.1 µM].
For CC(C)CNC(=O)c1cccc(NC(=O)c2ccc(Cl)c([N+](=O)[O-])c2)c1, the Potency was inconclusive: 0.0891 µM [inhibitor, full curve, poor fit].
For COc1nc(-c2ccccc2)cc(-c2ccc3c(c2)OCO3)c1C#N, the Potency was inconclusive: 2.82 µM [inhibitor, single point].
For C[C@]12CCC3C(CC[C@H]4C[C@@H](O)CC[C@]34C)C1C[C@@H](O)[C@]2(C)O (stereo not given in full), the “activity change, negative = inhibition” value was inactive: -4.36% [at 46.1 µM].
For CN(C)Cc1c(O)ccc2occ(C(=O)c3ccccc3)c12, the “activity change, negative = inhibition” value was inactive: -20.1%.
For O=[N+]([O-])c1cccc(SSc2cccc([N+](=O)[O-])c2)c1, the Potency was inconclusive: 7.94 µM [inhibitor, partial curve, poor fit].
In the case of CC1CCN(C(=O)C2CC(c3ccc(F)cc3)=NO2)CC1 (stereo not given), the Potency is reported as inconclusive: 16.4 µM [activator, single point].
For COc1ccccc1OCC(=O)Nc1nc(-c2ccc(Br)cc2)ns1, the “activity change, negative = inhibition” value was inactive: -5.1% [at 46.1 µM].
In the case of COc1ccc(/C=N\NC(=O)c2ccccc2)cc1COc1ccccc1, the “activity change, negative = inhibition” value is reported as inactive: -30%.
With O=[N+]([O-])c1ccccc1Oc1ccc(Cl)c2cccnc12 the Potency was inconclusive: 1 µM [activator, single point].
With COCCNC(=O)c1ccccc1NC(=O)Nc1ccccc1 the “activity change, negative = inhibition” value was inactive: -1.25% [at 46.1 µM].
For COc1ccc(C(CNC(=O)CSc2ccc(Br)cc2C)N2CCOCC2)cc1 (stereo not given), the “activity change, negative = inhibition” value was inactive: -27.6%.
In the case of COc1ccc(N2C(=O)CCC2(C#N)c2ccc(Br)cc2)cc1 (stereo not given), the Potency is reported as inconclusive: 29.1 µM [inhibitor, partial curve, poor fit].
In the case of CCOc1ccc(N(C)S(=O)(=O)c2ccc(C)c(C(=O)OCC(=O)c3c[nH]c4ccccc34)c2)cc1, the Potency is reported as active: 1.41 µM.
In the case of COc1ccc(Nc2ncnc3ccc(Br)cc23)cc1OC, the Potency is reported as inconclusive: 14.1 µM [inhibitor, partial curve, poor fit].
In the case of Cc1ccc(C(=O)CCC2CCCCC2=O)cc1 (stereo not given), the Potency is reported as inconclusive: 7.3 µM [activator, partial curve, poor fit].
For Cn1nnnc1NCc1ccc(Cl)c(Cl)c1, the Potency was inconclusive: 35.5 µM [activator, partial curve, poor fit].
In the case of COc1ccc(OCC(=O)Nc2cccc(-c3nc4ccccc4s3)c2C)cc1, the “activity change, negative = inhibition” value is reported as inactive: -17.5% [at 46.1 µM].
In the case of CCN(CC)C(=O)CN(c1cccc(C(F)(F)F)c1)S(C)(=O)=O, the “activity change, negative = inhibition” value is reported as inactive: 11.5%.
For CCOC(=O)C1=C(CSCc2ccccc2)NC(=O)NC1c1cc(C)ccc1C (stereo not given), the Potency was inconclusive: 23.1 µM [inhibitor, partial curve, poor fit].
With O=C1c2ccccc2S(=O)(=O)N1Cc1cc(=O)n2ccsc2n1 the “activity change, negative = inhibition” value was inactive: 27.2%.
In the case of C/C(=N\Nc1ccc([N+](=O)[O-])cc1)c1ccc2c(c1)OCO2, the Potency is reported as inconclusive: 10 µM [activator, partial curve].
With O=[N+]([O-])c1ccc(Oc2cccnc2)c([N+](=O)[O-])c1 the Potency was active: 7.94 µM.
For CCc1cc2cc(C)ccc2nc1SCC(=O)NC1CCCC1, the Potency was inconclusive: 35.5 µM [inhibitor, single point].
With CCC(=O)N1CCN(c2ccc(NC(=O)c3ccc(N4CCOCC4)c([N+](=O)[O-])c3)cc2)CC1 the “activity change, negative = inhibition” value was inactive: 11.1%.
